According to patent publication US20060004055A1, “Derivative of 5-(4-bromophenyl)-1-(2,4-dichlorophenyl)-4-ethyl-N-(piperidine-1-yl)-1H-pyrazole-3-carboxamide, the preparation and therapeutic use thereof” (Sanofi-Aventis, priority 2002, published 2006):
At least one compound was matched to its structure with a doubt left.

Test system: cannabinoid CB1 receptor
Experiment: models of adenylate cyclase inhibition (Rinaldi-Carmona et al., J. Pharmacol. Exp. Ther. 1996)
Type: cell-based
Conditions: as described in Rinaldi-Carmona et al., J. Pharmacol. Exp. Ther., 1996, 278, 871-878

`CCc1c(C(=O)NN2CCC(O)CC2)nn(-c2ccc(Cl)cc2Cl)c1-c1ccc(Br)cc1` [compound of formula (I), 5-(4-Bromophenyl)-1-(2,4-dichlorophenyl)-4-ethyl-N-(hydroxypiperidin-1-yl)-1H-pyrazole-3-carboxamide] was tested, and the “antagonist nature in models of adenylate cyclase inhibition” value was “antagonist nature”.
